Laboratory results as given in patent publication US20260055137A1, “NOVEL ISOLATED PEPTIDES, PROTEIN HYDROLYSATE COMPRISING THE SAID ISOLATED PEPTIDES AND USE THEREOF” (BETAGRO PUBLIC COMPANY LIMITED, priority 2022, published 2026).
No end group written: not given here.

assay: Quantification of peptides in the hydrolyzed chicken plasma sample and DoT factors; conditions: hydrolyzed chicken plasma sample
From the text: To identify the peptides which play a key role on taste-active and taste-modulating effects, not only the 21 newly identified peptides, but also literature-known basic tastants (e.g., amino acids, γ-glutamyl peptides, cations, anions, etc.) were quantified in the hydrolyzed chicken plasma sample. Focusing on the 21 newly identified peptides, the taste quality, taste thresholds, dose over threshold (DOT) factors and concentrations of the peptides in the hydrolyzed chicken plasma sample are shown in Table 6. The taste thresholds determined for the newly identified peptides (those are listed in Table 6) were used for the calculation of DoT factors which are defined as the ratio of the concentration of a substance and its corresponding taste threshold concentration. The DoT factors enable a first estimation of the taste contribution as substances with DoT factors≥1 most likely contribute directly to the perceived taste.

| Substance | Peptide concentration in the sample [µmol/kg] |
| --- | --- |
| Arg-Asn-Gly-Pro-Arg (RNGPR; Poultry) [SEQ ID NO: 17] | 0.6 |
| EDAPVLH [SEQ ID NO: 7] | 13.2 |
| EETPSHD [SEQ ID NO: 9] | 5.3 |
| EEVEEEEVE [SEQ ID NO: 10] | 3.2 |
| EFDARPT [SEQ ID NO: 8] | 3.6 |
| EFDEKAPD [SEQ ID NO: 11] | 221.1 |
| EFDEKPAD [SEQ ID NO: 6] | 194.1 |
| EGDSAAI [SEQ ID NO: 19] | 47.5 |
| ENAPDQK [SEQ ID NO: 12] | 20.8 |
| Glu-Ala-Glu-Phe-Asp (EAEFD; Poultry) [SEQ ID NO: 3] | 123.8 |
| Glu-Asp-Met-Ala-Pro (EDMAP; Poultry) [SEQ ID NO: 13] | 27.5 |
| Pro-Gln-Pro-Glu-Arg (PQPER; Poultry) [SEQ ID NO: 5] | 0.2 |
| Pro-Glu-Arg-Asn-Glu (PERNE; Poultry) [SEQ ID NO: 4] | 18.6 |
| Pro-Ile-Asn-Asp-Asn (PINDN; Poultry) [SEQ ID NO: 14] | 102.6 |
| Pro-Leu-Pro-Arg (PLPR; Poultry) [SEQ ID NO: 2] | 1.6 |
| Pro-Thr-Asp-Leu (PTDL; Poultry) [SEQ ID NO: 15] | 995.6 |
| Pro-Val-Ala-Glu (PVAE; Poultry) [SEQ ID NO: 16] | 171.7 |
| Pro-Val-Leu-Lys (PVLK; Poultry) [SEQ ID NO: 1] | 2.1 |
| RAEDTATYY [SEQ ID NO: 18] | 6.7 |
